Reference: PMC7378245
Results are given in words; binding and its absence hold for the method and conditions named. In cells and extracts the contact can be indirect. Some results given as binding are weak or reduced against the parent protein; the word gives no strength.

Chains of the proteins cited; added tags and fusions are not shown.
UniProt Q9UJV9: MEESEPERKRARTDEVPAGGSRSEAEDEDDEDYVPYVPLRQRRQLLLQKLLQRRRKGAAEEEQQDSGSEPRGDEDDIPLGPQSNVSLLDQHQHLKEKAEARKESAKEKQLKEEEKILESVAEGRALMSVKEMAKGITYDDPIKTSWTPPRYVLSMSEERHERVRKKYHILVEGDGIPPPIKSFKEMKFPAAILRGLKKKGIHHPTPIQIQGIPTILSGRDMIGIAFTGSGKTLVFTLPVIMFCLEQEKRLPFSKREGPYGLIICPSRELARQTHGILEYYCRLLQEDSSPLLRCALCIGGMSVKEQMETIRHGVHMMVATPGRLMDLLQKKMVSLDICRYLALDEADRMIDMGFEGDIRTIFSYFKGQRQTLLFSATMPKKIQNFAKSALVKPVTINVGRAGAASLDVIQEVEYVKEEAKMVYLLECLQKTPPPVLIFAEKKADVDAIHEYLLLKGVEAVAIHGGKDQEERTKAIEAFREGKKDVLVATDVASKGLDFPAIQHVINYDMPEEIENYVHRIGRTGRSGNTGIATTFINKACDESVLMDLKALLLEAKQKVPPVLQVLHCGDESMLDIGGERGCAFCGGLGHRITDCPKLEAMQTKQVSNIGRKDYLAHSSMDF

Biological target: T1, FAM50A (family with sequence similarity 50 member A) (human (endogenous in U-87)) (UniProt Q14320)
T1 sequence: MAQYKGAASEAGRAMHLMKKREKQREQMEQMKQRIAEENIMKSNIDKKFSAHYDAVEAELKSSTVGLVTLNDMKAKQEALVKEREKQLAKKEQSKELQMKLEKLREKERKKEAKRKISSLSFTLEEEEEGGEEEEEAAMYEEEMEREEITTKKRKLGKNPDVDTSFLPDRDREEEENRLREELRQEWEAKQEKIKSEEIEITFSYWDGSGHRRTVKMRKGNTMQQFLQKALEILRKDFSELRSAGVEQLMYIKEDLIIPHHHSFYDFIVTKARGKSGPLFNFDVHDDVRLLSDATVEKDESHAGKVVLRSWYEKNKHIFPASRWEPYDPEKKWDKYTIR
Assay: co-IP; semi-native co-IP: U-87 cells transfected with V5-tagged partner, harvested 60 h post-transfection in IP lysis buffer (25 mM Tris, 150 mM NaCl, 1 mM EDTA, 1% NP-40, 5% glycerol); endogenous FAM50A immunoprecipitated with anti-FAM50A antibody overnight at 4 °C on protein A/G PLUS-agarose; washes with 300 mM NaCl, 0.1% Triton X-100; partner detected by anti-V5 blot

V5-tagged DDX41 (from UniProt Q9UJV9 1-622)
binding: binds
